# In publication PMC13170660:
# Amino acid sequences for entries named in this document (tags omitted). A change or cut given only in a name is not applied to a line headed by its entry. Residues count along the entry.
# UniProt P58391: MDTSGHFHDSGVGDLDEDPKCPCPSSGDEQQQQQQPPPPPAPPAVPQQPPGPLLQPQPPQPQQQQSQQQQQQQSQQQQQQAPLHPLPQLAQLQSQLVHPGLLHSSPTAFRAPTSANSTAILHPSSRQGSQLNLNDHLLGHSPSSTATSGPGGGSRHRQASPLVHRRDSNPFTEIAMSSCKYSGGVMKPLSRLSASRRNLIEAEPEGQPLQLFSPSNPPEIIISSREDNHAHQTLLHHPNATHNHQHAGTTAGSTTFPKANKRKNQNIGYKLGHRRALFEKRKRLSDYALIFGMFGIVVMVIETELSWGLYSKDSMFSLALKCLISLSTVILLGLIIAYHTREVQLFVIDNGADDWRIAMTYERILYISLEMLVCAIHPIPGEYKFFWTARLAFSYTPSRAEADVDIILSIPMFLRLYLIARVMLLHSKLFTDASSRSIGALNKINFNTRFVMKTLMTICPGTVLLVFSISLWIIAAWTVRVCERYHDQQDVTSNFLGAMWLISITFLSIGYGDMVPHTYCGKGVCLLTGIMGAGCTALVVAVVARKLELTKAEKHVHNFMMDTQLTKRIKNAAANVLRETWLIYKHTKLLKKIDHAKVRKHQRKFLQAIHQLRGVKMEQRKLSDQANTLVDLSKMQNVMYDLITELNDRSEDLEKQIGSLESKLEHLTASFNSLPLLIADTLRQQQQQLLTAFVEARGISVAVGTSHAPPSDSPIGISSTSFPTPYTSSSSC
# UniProt Q6PHS9, residues 19-1154: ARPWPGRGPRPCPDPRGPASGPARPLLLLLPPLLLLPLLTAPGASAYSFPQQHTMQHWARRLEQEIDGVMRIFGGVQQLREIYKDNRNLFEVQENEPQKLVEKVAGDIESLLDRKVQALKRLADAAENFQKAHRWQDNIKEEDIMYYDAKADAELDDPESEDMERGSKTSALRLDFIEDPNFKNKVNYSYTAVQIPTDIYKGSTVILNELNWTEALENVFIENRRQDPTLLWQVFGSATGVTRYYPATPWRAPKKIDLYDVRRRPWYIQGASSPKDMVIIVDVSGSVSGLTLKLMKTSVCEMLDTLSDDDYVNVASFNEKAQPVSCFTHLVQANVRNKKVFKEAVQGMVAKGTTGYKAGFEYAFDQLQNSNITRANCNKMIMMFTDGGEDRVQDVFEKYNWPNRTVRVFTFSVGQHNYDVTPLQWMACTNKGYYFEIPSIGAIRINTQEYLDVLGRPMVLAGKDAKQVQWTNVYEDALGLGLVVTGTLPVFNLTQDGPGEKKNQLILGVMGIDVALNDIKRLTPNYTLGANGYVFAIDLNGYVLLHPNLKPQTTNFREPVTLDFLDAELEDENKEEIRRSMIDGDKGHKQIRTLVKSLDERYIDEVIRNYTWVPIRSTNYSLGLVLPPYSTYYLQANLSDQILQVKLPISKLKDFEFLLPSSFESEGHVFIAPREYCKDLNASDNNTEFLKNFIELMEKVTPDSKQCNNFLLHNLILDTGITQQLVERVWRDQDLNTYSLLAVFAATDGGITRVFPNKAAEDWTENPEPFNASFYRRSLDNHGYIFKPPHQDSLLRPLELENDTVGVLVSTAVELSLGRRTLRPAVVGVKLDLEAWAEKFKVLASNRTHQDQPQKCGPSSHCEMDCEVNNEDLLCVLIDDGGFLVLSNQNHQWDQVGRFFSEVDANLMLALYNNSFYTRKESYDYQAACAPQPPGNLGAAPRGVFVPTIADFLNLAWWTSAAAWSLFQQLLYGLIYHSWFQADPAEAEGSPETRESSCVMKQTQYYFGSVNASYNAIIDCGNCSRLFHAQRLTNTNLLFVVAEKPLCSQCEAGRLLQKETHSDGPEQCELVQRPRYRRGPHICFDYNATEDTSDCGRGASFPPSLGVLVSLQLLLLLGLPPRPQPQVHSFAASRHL
# UniProt P15116, residues 160-906: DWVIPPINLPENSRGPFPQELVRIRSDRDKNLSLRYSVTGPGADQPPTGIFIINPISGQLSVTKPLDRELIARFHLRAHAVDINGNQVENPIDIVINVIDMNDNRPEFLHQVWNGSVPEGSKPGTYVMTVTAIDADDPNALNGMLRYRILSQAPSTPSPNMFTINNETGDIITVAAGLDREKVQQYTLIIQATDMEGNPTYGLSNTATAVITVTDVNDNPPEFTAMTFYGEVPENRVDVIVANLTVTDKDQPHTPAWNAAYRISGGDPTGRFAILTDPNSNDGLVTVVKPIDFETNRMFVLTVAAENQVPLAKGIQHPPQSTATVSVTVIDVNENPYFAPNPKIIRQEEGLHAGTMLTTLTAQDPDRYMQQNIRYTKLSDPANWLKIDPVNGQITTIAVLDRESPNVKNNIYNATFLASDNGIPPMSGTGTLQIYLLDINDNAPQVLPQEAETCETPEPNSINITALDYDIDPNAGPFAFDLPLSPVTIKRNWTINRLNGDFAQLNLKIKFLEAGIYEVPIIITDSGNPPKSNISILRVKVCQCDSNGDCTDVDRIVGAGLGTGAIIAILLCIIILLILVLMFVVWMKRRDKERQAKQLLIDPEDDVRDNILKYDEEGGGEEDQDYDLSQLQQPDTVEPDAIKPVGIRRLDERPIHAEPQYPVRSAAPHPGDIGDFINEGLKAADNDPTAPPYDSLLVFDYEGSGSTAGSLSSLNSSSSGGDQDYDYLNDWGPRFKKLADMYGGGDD
# UniProt P09055, residues 21-798: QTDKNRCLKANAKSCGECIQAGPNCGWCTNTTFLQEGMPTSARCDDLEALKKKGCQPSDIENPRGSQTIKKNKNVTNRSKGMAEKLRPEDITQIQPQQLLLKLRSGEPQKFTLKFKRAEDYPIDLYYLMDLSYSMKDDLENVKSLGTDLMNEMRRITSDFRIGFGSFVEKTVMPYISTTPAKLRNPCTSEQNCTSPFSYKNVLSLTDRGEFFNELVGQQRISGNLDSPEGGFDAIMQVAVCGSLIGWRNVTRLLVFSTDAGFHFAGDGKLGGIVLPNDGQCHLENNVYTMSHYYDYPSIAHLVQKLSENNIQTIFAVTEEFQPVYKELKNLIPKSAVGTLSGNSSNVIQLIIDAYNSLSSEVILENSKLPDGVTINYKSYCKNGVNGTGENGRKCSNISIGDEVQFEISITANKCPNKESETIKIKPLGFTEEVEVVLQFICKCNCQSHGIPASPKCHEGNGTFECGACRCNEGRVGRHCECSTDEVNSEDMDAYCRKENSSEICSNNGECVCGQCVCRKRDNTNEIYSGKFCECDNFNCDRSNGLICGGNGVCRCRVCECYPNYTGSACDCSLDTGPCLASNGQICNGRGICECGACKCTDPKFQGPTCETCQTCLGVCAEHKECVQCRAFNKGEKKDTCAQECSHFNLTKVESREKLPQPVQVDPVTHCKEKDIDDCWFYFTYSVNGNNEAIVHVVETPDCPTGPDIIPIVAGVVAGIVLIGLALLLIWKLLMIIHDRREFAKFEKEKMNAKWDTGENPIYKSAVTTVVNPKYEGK
# UniProt P97952, residues 19-218: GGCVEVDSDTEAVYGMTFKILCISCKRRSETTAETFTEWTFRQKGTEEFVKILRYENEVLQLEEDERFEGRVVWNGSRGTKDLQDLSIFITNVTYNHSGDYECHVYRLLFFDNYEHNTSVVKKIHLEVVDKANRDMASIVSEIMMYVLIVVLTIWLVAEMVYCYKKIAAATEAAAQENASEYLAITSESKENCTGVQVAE
# UniProt B1AS29, residues 32-919: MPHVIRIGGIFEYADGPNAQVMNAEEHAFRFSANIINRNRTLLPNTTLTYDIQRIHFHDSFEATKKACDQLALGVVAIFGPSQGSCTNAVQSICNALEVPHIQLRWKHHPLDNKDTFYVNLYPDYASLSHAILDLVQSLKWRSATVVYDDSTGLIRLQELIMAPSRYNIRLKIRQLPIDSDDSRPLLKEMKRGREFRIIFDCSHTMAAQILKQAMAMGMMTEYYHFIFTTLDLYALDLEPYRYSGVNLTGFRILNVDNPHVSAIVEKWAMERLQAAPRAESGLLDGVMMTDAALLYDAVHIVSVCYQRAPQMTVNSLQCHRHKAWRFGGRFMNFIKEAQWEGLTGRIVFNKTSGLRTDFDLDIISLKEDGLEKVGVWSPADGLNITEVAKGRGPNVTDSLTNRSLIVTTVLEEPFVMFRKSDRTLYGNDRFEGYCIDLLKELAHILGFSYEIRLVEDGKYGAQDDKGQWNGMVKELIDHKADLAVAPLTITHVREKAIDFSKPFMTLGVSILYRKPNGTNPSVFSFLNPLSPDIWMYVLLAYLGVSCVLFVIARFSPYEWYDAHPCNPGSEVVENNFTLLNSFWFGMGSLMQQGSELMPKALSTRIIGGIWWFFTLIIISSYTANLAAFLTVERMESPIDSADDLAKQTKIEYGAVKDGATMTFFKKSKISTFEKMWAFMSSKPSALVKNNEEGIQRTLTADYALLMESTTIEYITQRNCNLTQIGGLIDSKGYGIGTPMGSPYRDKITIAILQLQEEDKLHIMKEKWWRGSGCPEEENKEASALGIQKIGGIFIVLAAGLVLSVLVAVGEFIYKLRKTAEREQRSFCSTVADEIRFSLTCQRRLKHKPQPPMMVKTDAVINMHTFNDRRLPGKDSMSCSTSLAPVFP
# UniProt Q61738, residues 34-1179: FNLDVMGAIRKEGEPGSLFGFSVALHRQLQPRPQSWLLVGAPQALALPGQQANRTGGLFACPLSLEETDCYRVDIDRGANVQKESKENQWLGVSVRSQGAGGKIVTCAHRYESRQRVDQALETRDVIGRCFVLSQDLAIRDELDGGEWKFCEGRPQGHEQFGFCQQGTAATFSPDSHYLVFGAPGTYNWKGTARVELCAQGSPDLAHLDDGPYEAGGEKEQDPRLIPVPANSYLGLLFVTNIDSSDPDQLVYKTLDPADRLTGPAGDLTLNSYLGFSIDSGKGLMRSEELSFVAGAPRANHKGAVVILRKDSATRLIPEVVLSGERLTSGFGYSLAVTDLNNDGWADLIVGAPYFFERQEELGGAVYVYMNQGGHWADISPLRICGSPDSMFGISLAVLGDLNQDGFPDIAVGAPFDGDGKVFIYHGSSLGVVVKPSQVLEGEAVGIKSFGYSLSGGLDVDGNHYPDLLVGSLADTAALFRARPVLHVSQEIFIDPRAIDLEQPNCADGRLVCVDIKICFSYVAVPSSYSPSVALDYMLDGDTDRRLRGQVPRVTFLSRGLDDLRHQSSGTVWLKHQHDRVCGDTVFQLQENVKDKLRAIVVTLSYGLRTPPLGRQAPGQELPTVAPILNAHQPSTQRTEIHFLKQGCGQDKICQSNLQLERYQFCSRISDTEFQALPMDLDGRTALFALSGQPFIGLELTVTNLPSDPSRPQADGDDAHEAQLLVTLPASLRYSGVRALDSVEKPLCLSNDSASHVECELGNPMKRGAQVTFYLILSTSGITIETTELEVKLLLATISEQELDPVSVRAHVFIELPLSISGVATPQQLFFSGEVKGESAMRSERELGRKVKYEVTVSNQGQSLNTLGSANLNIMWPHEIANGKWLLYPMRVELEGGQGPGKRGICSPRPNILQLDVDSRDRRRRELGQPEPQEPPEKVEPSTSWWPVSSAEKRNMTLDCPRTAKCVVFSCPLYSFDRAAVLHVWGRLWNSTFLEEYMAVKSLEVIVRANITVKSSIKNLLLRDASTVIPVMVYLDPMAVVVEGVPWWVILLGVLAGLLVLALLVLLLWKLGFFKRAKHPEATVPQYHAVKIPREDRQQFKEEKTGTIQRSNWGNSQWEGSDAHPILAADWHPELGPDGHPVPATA
# UniProt Q8BLK3: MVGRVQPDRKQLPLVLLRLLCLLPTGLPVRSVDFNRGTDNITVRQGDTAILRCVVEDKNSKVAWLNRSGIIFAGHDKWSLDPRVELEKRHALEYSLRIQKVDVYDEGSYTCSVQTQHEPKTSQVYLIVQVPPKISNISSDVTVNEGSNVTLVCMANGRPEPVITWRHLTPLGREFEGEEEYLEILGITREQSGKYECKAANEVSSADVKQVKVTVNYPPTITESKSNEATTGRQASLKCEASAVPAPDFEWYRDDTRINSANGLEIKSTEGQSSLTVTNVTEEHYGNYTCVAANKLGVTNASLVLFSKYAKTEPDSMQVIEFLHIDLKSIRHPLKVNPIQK
# UniProt Q56A07, residues 30-215: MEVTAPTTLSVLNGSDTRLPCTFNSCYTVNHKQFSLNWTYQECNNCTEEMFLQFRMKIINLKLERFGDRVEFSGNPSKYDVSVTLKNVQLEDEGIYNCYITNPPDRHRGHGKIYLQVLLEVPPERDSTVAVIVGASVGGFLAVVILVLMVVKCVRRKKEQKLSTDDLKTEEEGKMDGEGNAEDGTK
# UniProt Q8BHK2, residues 25-215: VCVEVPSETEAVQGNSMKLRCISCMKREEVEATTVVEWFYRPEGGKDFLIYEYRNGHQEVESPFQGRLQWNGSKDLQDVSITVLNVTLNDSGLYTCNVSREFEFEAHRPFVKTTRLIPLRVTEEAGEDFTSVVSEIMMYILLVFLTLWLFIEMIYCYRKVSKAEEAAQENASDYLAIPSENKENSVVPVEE
# T1: IgLON5 (mouse (endogenous in primary hippocampal neurons)) (UniProt Q8HW98)
# T1 sequence: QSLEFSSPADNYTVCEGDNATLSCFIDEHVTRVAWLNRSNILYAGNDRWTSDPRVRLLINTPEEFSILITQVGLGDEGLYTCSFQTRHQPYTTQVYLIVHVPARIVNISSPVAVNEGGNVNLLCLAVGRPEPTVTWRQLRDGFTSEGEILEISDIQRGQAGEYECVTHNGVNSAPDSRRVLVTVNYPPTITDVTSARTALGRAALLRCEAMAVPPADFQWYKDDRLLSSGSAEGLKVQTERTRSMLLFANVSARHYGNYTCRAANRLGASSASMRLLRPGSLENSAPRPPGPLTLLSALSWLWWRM
# Target: T1, IgLON5 (mouse (endogenous in primary hippocampal neurons))
# Test: proximity labelling; live primary mouse hippocampal neurons (DIV12) treated with α-IgLON5#1 or pCtrl (1 μg/ml, 60 min, 37°C), fixed with 4% PFA, HRP-conjugated α-human secondary antibody, 250 μM biotin-tyramide and 50 μM H2O2 for 1 min; streptavidin bead pulldown and MS; enrichment of α-IgLON5#1 against pCtrl
row,Molecule,binding
1,Ca2+-activated potassium channel KCNN3 (from UniProt P58391 1-732),binds
2,Cacna2d1 (from UniProt O08532 25-1103),binds
3,Cacna2d2 (from UniProt Q6PHS9 19-1154),binds
4,Cdh2 (from UniProt P15116 160-906),binds
5,Itga5 (from UniProt P11688 45-1053),binds
6,Itgb1 (from UniProt P09055 21-798),binds
7,Ncam,binds
8,Nrcam (from UniProt Q810U4 30-1256),binds
9,OPCML (=IgLON1),binds
10,Scn1b (from UniProt P97952 19-218),binds
11,kainate receptor subunit GRIK3 (from UniProt B1AS29 32-919),binds
12,"Cntn2 (protein, UniProt Q61330 31-1014) QGTPATFGPVFEEQPVGLLFPEESAEDQVTLACRARASPPATYRWKMNGTEMNLEPGSRHQLMGGNLVIMSPTKAQDAGVYQCLASNPVGTVVSKEAVLRFGFLQEFSKEERDPVKTHEGWGVMLPCNPPAHYPGLSYRWLLNEFPNFIPTDGRHFVSQTTGNLYIARTNASDLGNYSCLATSHLDFSTKSVFSKFAQLNLAAEDPRLFAPSIKARFPPETYALVGQQVTLECFAFGNPVPRIKWRKVDGSLSPQWGTAEPTLQIPSVSFEDEGTYECEAENSKGRDTVQGRIIVQAQPEWLKVISDTEADIGSNLRWGCAAAGKPRPMVRWLRNGEPLASQNRVEVLAGDLRFSKLNLEDSGMYQCVAENKHGTIYASAELAVQALAPDFRQNPVRRLIPAARGGEISIPCQPRAAPKATILWSKGTEILGNSTRVTVTLDGTLIIRNISRSDEGKYTCFAENFMGKANSTGILSVRDATKITLAPSSADINVGDNLTLQCHASHDPTMDLTFTWTLDDFPVDFDKPGGHYRRASVKETIGDLTILNAQLRHGGTYTCMAQTVVDGASKEATVLVRGPPGPPGGVVVRDIGDTTVQLSWSRGFDNHSPIAKYTLQARTPPSGKWKQVRTNPVNIEGNAETAQVLGLMPWMDYEFRVSASNILGTGEPSGPSSRIRTKEAVPSVAPSGLSGGGGAPGELTINWTPMSREYQNGDGFGYLLSFRRQGSSSWQTARVPGADTQYFVYSNDSIHPYTPFEVKIRSYNRRGDGPESLTAIVYSAEEEPKVAPAKVWAKGSSSSEMNVSWEPVLQDMNGILLGYEIRYWKAGDKEAAADRVRTAGLDSSARVTGLYPNTKYHVTVRAYNRAGTGPASPSADAMTMKPPPRRPPGNISWTFSSSSLSLKWDPVVPLRNESTVTGYKMLYQNDLQPTPMLHLTSKNWIEIPVPEDIGHALVQIRTTGPGGDGIPAEVHIVRNGGTSMMVES",binds
13,"Cntn1 (protein, UniProt P12960 21-1001) DFTWHRRYGHGVSEEDKGFGPIFEEQPINTIYPEESLEGKVSLNCRARASPFPVYKWRMNNGDVDLTNDRYSMVGGNLVINNPDKQKDAGVYYCLASNNYGMVRSTEATLSFGYLDPFPPEERPEVKVKEGKGMVLLCDPPYHFPDDLSYRWLLNEFPVFITMDKRRFVSQTNGNLYIANVESSDRGNYSCFVSSPSITKSVFSKFIPLIPIPERTTKPYPADIVVQFKDIYTMMGQNVTLECFALGNPVPDIRWRKVLEPMPSTAEISTSGAVLKIFNIQLEDEGLYECEAENIRGKDKHQARIYVQAFPEWVEHINDTEVDIGSDLYWPCIATGKPIPTIRWLKNGYSYHKGELRLYDVTFENAGMYQCIAENAYGSIYANAELKILALAPTFEMNPMKKKILAAKGGRVIIECKPKAAPKPKFSWSKGTEWLVNSSRILIWEDGSLEINNITRNDGGIYTCFAENNRGKANSTGTLVITNPTRIILAPINADITVGENATMQCAASFDPALDLTFVWSFNGYVIDFNKEITHIHYQRNFMLDANGELLIRNAQLKHAGRYTCTAQTIVDNSSASADLVVRGPPGPPGGLRIEDIRATSVALTWSRGSDNHSPISKYTIQTKTILSDDWKDAKTDPPIIEGNMESAKAVDLIPWMEYEFRVVATNTLGTGEPSIPSNRIKTDGAAPNVAPSDVGGGGGTNRELTITWAPLSREYHYGNNFGYIVAFKPFDGEEWKKVTVTNPDTGRYVHKDETMTPSTAFQVKVKAFNNKGDGPYSLVAVINSAQDAPSEAPTEVGVKVLSSSEISVHWKHVLEKIVESYQIRYWAGHDKEAAAHRVQVTSQEYSARLENLLPDTQYFIEVGACNSAGCGPSSDVIETFTRKAPPSQPPRIISSVRSGSRYIITWDHVVALSNESTVTGYKILYRPDGQHDGKLFSTHKHSIEVPIPRDGEYVVEVRAHSDGGDGVVSQVKISGVSTLS",binds
14,"Cntn4 (protein, UniProt Q69Z26 19-1000) DDYTLHGPVFVQEPSHVMFPLDSEEKKVKLSCEVKGNPKPHIRWKINGTDVDIGMDFRYSVVDGSLLINNPNKTQDAGTYQCIATNSFGTIVSREAKLQFAYLENFKTRTRSTVSVRRGQGMVLLCGPPPHSGELSYAWIFNEYPSYQDNRRFVSQETGNLYIAKVEKSDVGNYTCVVTNTVTNHKVLGPPTPLILRNDGVMGEYEPKIEVQFPETVPAEKGTTVKLECFALGNPVPTILWRRADGKPIARKARRHKSNGILEIPNFQQEDAGSYECVAENSRGKNVAKGQLTFYAQPNWVQIINDIHVAMEESVFWECKANGRPKPTYRWLKNGDPLLTRDRIQIEQGTLNITIVNLSDAGMYQCVAENKHGVIFSSAELSVIAESPDFSRTLLKRVTLVKVGGEVVIECKPKASPRPVYTWRKGREILRENERITISEDGNLRIINVTKSDAGSYTCIATNHFGTASSTGNVIVKDPTKVMVPPSSMDVTVGESIVLPCQVTHDHSLDIVFTWTFNGHLIDFDKDGDHFERVGGQDSAGDLMIRNIQLKHAGKYVCMVQTSVDKLSVAADLIVRGPPGPPEAVTIDEITDTTAQLSWRPGPDNHSPITMYVIQARTPFSVGWQAVNTVPDLVDGKTFTATVVGLNPWVEYEFRTVAANVIGIGEPSRPSEKRRTEEALPEVTPANVSGGGGSKSELVITWETVPEELQNGRGFGYVVAFRPHGKMIWMLTVLASADASRYVFRNESVRPFSPFEVKVGVFNNKGEGPFSPTTLVYSAEEEPTKPPASIFARSLSATDIEVFWASPIGKNRGRIQGYEVKYWRHDDKEENAKKIRTVGNQTSTKITNLKGSALYHLSVKAYNSAGTGPSSATVNVTTRKPPPSQPPGNIIWNSSDSKIILNWDQVKALDNESEVKGYKVLYRWNRQSSTSVIETNKTSVELSLPFDEDYIIEIKPFSDGGDGSSSEQIRIPKISNSYARGS",binds

# More lines, now with the values ahead:
row,binding,Molecule
1,binds,Itga7 (from UniProt Q61738 34-1179)
2,binds,LSAMP (=IgLON3) (from UniProt Q8BLK3)
3,binds,Scn2b (from UniProt Q56A07 30-215)
4,binds,Scn3b (from UniProt Q8BHK2 25-215)
5,binds,"Cntn5 (protein, UniProt P68500 24-1071) LSGLSTSYAALLRIKKSSTSPFGSKSRPRFSSPSLGTISVSPPSWRGAAQQYHSPGNLYHSSDAFRQDESVDYGPVFVQEPDDVIFPTDSDEKKVALNCEVRGNPSPSYRWLRNGTEIALESDYRYSLIDGTFIISNPSELRDSGLYQCLATNSFGSILSREATLQFAYLGNFSGRTRSAVSVREGQGVVLMCSPPPHSPEIIYSWVFNEFPSFVAEDSRRFISQETGNLYISKVQTSDVGSYICLVKNAVTNARVLSPPTPLTLRNDGVMGEYEPKIEVHFPFTVTAAKGTTVKMECFALGNPVPTITWMKVNGYIPSKSRLRKSQAVLEIPNLQLDDAGIYECTAENSRGKNSFRGQLQIFTYPHWVQKLNDTQLDSGSPLQWECKATGKPRPTYRWLKNGAPLLPQSRVDTVNGILAIQSVNQSDAGMYQCLAENKYGAIYASAELKILASPPSFELNQVKKSIIVTKDRGVLIECEPQGSPKPAISWRKGDKAVRANKRIAILPDGSLRILNASKADEGKYICQGVNIFGSAEIIASLSVKEPTRIELTPKRTELTVGESIVLNCKAIHDASLDVTFYWTLKGQPIDFEKEGGHFENIRAQASSADLMIRNILLMHAGRYGCRVQTTADSVSDEAELLVRGPPGPPGVVIVEEITESTATLSWSPATDNHSPISSYNLQARSPFSLGWQTVKTVPEVITGDMESAMAVDLNPWVEYEFRVVATNPIGTGDPSIPSRMIRTNEAVPKTAPSNVSGRSGRRHELVIAWEPVSEEFQNGEGFGYIVAFRPNGTRGWKEKMVTSSEASKFIYRDESVPPLTPFEVKVGVYNNKGDGPFSQIVVICSAEGEPTAAPTDVTATSVSVSEIFVVWKHVKESLGRPQGFEISYWKDTEPEDSVETVRTRGNESFVMLTGLEGNTLYHLTVRAYNGAGYGPPSREASTTTKRHPPREPPGNLRWEQQGSQVSLGWEPVRPLANESEVMGYKVFYRQEGHSEGQVIETQKPQAVVPLPEAGVYIIEVRAYSEGGDGTASSQIRVPSYSGGKITS"
6,binds,"Cntn3 (protein, UniProt Q07409 20-1002) ELLLQGPVFIKEPSNSIFPVDSEDKKITLNCEARGNPSPHYRWQLNGSDIDTSLDHRYKLNGGNLIVINPNRNWDTGSYQCFATNSLGTIVSREAKLQFAYLENFKTRMRSTVSVREGQGVVLLCGPPPHSGELSYAWVFNEYPSFVEEDSRRFVSQETGHLYIAKVEPSDVGNYTCVVTSTVTNTRVLGSPTPLVLRSDGVMGEYEPKIEVQFPETLPAAKGSTVRLECFALGNPVPQINWRRSDGMPFPNKIKLRKFNGMLEIQNFQQEDTGSYECIAENSRGKNVARGRLTYYAKPYWLQLLRDVEIAVEDSLYWECRASGKPKPSYRWLKNGDALVLEERIQIENGALTITNLNVTDSGMFQCIAENKHGLIYSSAELKVVASAPDFSRNPMKKMVQVQVGSLVILDCKPRASPRALSFWKKGDMMVREQARVSFLNDGGLKIMNVTKADAGTYTCTAENQFGKANGTTHLVVTEPTRIILAPSNMDVAVGESVILPCQVQHDPLLDIMFAWYFNGALTDFKKDGSHFEKVGGSSSGDLMIRNIQLKHSGKYVCMVQTGVDSVSSAAELIVRGSPGPPENVKVDEITDTTAQLSWTEGTDSHSPVISYAVQARTPFSVGWQSVRTVPEVIDGKTHTATVVELNPWVEYEFRIVASNKIGGGEPSLPSEKVRTEEAAPEIAPSEVSGGGGSRSELVITWDPVPEELQNGGGFGYVVAFRPLGVTTWIQTVVTSPDNPRYVFRNESIVPFSPYEVKVGVYNNKGEGPFSPVTTVFSAEEEPTVAPSHISAHSLSSSEIEVSWNTIPWKLSNGHLLGYEVRYWNNGGEEESSRKVKVAGNQTSAVLRGLKSNLAYYTAVRAYNSAGAGPFSATVNATTKKTPPSQPPGNVVWNATDTKVLLNWEQVKAMENESEVTGYKVFYRTSSQNNVHVLNTNKTSAELLLPIKEDYIIEVKATTDGGDGTSSEQIRIPRITSMDARGS"

# These are yes or no findings as the source states them, for the method shown. Binding seen in cells or lysates may run through a third protein. Here binding means that the protein was enriched with, or labelled near, the bait; the list need not be complete.
